# Laboratory results from patent US20250154171A1, “RAS INHIBITORS” (Revolution Medicines, Inc., priority 2023, published 2025).
# The chains behind the UniProt entries cited, without tags or fusion partners. Where a name states a change or a piece, a line headed by the entry shows the natural chain unless it says otherwise. Residues count along the entry.
# UniProt P01116, 1-188 isoform P01116-2 G12V: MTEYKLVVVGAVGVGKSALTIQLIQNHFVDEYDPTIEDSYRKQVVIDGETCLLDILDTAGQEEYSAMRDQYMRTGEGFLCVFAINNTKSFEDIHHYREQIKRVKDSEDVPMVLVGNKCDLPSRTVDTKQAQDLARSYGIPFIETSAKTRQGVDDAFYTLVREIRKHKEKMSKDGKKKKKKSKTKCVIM
# UniProt P62937, whole entry: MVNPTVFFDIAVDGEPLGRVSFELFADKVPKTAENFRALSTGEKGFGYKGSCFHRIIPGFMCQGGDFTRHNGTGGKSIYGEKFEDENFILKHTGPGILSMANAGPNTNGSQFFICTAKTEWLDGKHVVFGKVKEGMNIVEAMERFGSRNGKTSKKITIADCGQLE
# Some results were stated once for a whole list of compounds, not compound by compound.
# Tests used:
# [1] = target: K-RasG12V (Homo sapiens, UniProt P01116+P62937, G12V); test: Disruption of BRAF RBD interaction with K-Ras (TR-FRET / MOA assay), K-RasG12V; assay type: biochemical; details: TR-FRET with cyclophilin A and GST-BRAF RBD, read-out: IC50 with respect to K-RasG12V (disruption of BRAF RBD interaction)
# [2] = test system: Capan-1 (K-Ras G12V); test: CellTiter-Glo cell viability assay, Capan-1; assay type: cell-based, human; details: 5-day treatment, Capan-1 versus A375
Compound,IC50 [1] [µM],decrease in cell viability with respect to KRAS G12V (Capan-1) versus wild-type KRAS (A375) [2]
CO[C@@H](C)c1ncc(N2CCN(C3CC3)CC2)cc1-c1c2c3cc(ccc3n1CCOC1CCOCC1)-c1csc(n1)[C@@H](N1CCOCC1)[C@H](NC(=O)[C@@H]1OC[C@@H]1C)C(=O)N1CCC[C@H](N1)C(=O)OCC(C)(C)C2 (racemic) [Example A499],< 1,greater decrease in cell viability
CO[C@@H](C)c1ncc(N2CCN(C3CC3)CC2)cc1-c1c2c3cc(ccc3n1CCOC1CCOCC1)-c1csc(n1)[C@@H](OCC(F)F)[C@H](NC(=O)[C@@H]1[C@@H](C)[C@H]1c1ccccn1)C(=O)N1CC3CC(C3)(N1)C(=O)OCC(C)(C)C2 (racemic) [Example A500],< 1,greater decrease in cell viability
CCO[C@@H]1c2nc(cs2)-c2ccc3c(c2)c(c(-c2cc(N4CCN(C5CC5)CC4)cnc2[C@H](C)OC)n3CCOC2CCOCC2)CC(C)(C)COC(=O)C23CC(CN(N2)C(=O)[C@H]1NC(=O)C12CC(C1)C(C)O2)C3 (mixture of isomers) [Example A501],< 1,greater decrease in cell viability
CO[C@@H](C)c1ncc(N2CCN(C3CC3)CC2)cc1-c1c2c3cc(ccc3n1CCOC1CCOCC1)-c1csc(n1)[C@@H](N1CC3(C)CC1C3)[C@H](NC(=O)[C@H]1[C@H](C)[C@@H]1C)C(=O)N1CCC[C@H](N1)C(=O)OCC(C)(C)C2 (racemic) [Example A502],< 1,greater decrease in cell viability
CO[C@@H](C)c1ncccc1-c1c2c3cc(ccc3n1CCOC1CCOCC1)-c1csc(n1)[C@@H](OC[C@H](C)N1CCN(C)CC1)[C@H](NC(=O)[C@@H]1[C@@H](C)[C@H]1c1ccncn1)C(=O)N1N[C@H](C(=O)OCC(C)(C)C2)C2CC1C2 (racemic) [Example A503],< 1,greater decrease in cell viability
CO[C@@H](C)c1ncc(N2CCN(C3CC3)CC2)cc1-c1c2c3cc(ccc3n1CCOC1CCOC(C)(C)C1)-c1csc(n1)[C@@H](N1CCCC1)[C@H](NC(=O)[C@@H]1[C@@H](C)[C@H]1c1ccncn1)C(=O)N1CCC[C@H](N1)C(=O)OCC(C)(C)C2 (mixture of isomers) [Example A504],< 1,greater decrease in cell viability
CO[C@@H](C)c1ncc(N2CCN(C3CC3)CC2)cc1-c1c2c3cc(ccc3n1CCOC1CCOCC1)-c1csc(n1)[C@@H](N1CCOCC1)[C@H](NC(=O)N1C[C@@H]3COCC[C@@H]31)C(=O)N1N[C@H](C(=O)OCC(C)(C)C2)C2CC1C2 (racemic) [Example A505],< 1,greater decrease in cell viability
CO[C@@H](C)c1ncc(N2CCN(C3CC3)CC2)cc1-c1c2c3cc(ccc3n1CCOC1CCOC(C)(C)C1)-c1csc(n1)[C@@H](N1CCOCC1)[C@H](NC(=O)[C@@H]1[C@@H](C)[C@H]1c1ccccn1)C(=O)N1CCC[C@H](N1)C(=O)OCC(C)(C)C2 (mixture of isomers) [Example A506],< 1,greater decrease in cell viability
CO[C@@H](C)c1ncc(N2CCN(C3CC3)CC2)cc1-c1c2c3cc(ccc3n1CCOC1CCOC(C)(C)C1)-c1csc(n1)[C@@H](N1CCCC1)[C@H](NC(=O)[C@@H]1[C@@H](C)[C@H]1c1cocn1)C(=O)N1CCC[C@H](N1)C(=O)OCC(C)(C)C2 (mixture of isomers) [Example A508],< 1,greater decrease in cell viability
CO[C@@H](C)c1ncc(N2CCN(C3CC3)CC2)cc1-c1c2c3cc(ccc3n1CCOC1CCOCC1)-c1csc(n1)[C@@H](N1CCOCC1)[C@H](NC(=O)[C@H]1OC[C@@H]1C)C(=O)N1CCC[C@H](N1)C(=O)OCC(C)(C)C2 (racemic) [Example A509],< 1,greater decrease in cell viability
CO[C@@H](C)c1ncc(N2CCN(C3CC3)CC2)cc1-c1c2c3cc(ccc3n1CCOC1CCOCC1)-c1csc(n1)[C@@H](N1CCOCC1)[C@H](NC(=O)C13CC(C1)C(C)O3)C(=O)N1CC3CC(C3)(N1)C(=O)OCC(C)(C)C2 (mixture of isomers) [Example A510],< 1,greater decrease in cell viability
CO[C@@H](C)c1ncc(N2CCN(C3CC3)CC2)cc1-c1c2c3cc(ccc3n1CCOC1CCOCC1)-c1csc(n1)[C@@H](N1CCCC1)[C@H](NC(=O)[C@@H]1[C@@H](C)[C@H]1c1ccncn1)C(=O)N1CC3CC(C3)(N1)C(=O)OCC(C)(C)C2 (racemic) [Example A511],< 1,greater decrease in cell viability
CO[C@@H](C)c1ncccc1-c1c2c3cc(ccc3n1CCOC1CCOCC1)-c1csc(n1)[C@@H](OCCN(C)C1COC1)[C@H](NC(=O)[C@@H]1[C@@H](C)[C@H]1c1ccncn1)C(=O)N1CCC[C@H](N1)C(=O)OCC(C)(C)C2 (racemic) [Example A512],< 1,greater decrease in cell viability
COC1CN([C@@H]2c3nc(cs3)-c3ccc4c(c3)c(c(-c3cc(N5CCN(C6CC6)CC5)cnc3[C@H](C)OC)n4CCOC3CCOCC3)CC(C)(C)COC(=O)[C@@H]3CCCN(N3)C(=O)[C@H]2NC(=O)[C@H]2[C@H](C)[C@@H]2C)C1 (racemic) [Example A513],< 1,greater decrease in cell viability
CO[C@@H](C)c1ncc(N2CCN(C3CC3)CC2)cc1-c1c2c3cc(ccc3n1CCOC1CCOCC1)-c1csc(n1)[C@@H](OC[C@@H](C)F)[C@H](NC(=O)C13CC(C1)[C@@H](C)O3)C(=O)N1N[C@H](C(=O)OCC(C)(C)C2)C2CC1C2 (racemic) [Example A514],< 1,greater decrease in cell viability
CO[C@@H](C)c1ncc(N2CCN(C3CC3)CC2)cc1-c1c2c3cc(ccc3n1CCOC1CCOCC1)-c1csc(n1)[C@@H](OC[C@@H](C)F)[C@H](NC(=O)C13CC(C1)[C@H](C)O3)C(=O)N1N[C@H](C(=O)OCC(C)(C)C2)C2CC1C2 (racemic) [Example A515],< 1,greater decrease in cell viability
CO[C@@H](C)c1ncccc1-c1c2c3cc(ccc3n1CCOC1CCOCC1)-c1csc(n1)[C@@H](OC[C@H](C)F)[C@H](NC(=O)[C@@H]1[C@@H](C)[C@H]1c1ccncn1)C(=O)N1N[C@H](C(=O)OCC(C)(C)C2)C2CC1C2 (racemic) [Example A516],< 1,greater decrease in cell viability
CO[C@@H](C)c1ncccc1-c1c2c3cc(ccc3n1CCOC1CCOCC1)-c1csc(n1)[C@@H](OCCN1CCOCC1)[C@H](NC(=O)[C@@H]1[C@@H](C)[C@H]1c1ccncn1)C(=O)N1N[C@H](C(=O)OCC(C)(C)C2)C2CC1C2 (racemic) [Example A517],< 1,greater decrease in cell viability
CO[C@@H](C)c1ncc(N2CCN(C3CC3)CC2)cc1-c1c2c3cc(ccc3n1CCOC1CC3(COC3)C1)-c1csc(n1)[C@@H](OCC(F)F)[C@H](NC(=O)N1CC[C@H]1C)C(=O)N1CCC[C@H](N1)C(=O)OCC(C)(C)C2 (racemic) [Example A518],< 1,greater decrease in cell viability
CO[C@@H](C)c1ncc(N2CCN(C3CC3)CC2)cc1-c1c2c3cc(ccc3n1CCOC1CCOCC1)-c1csc(n1)[C@@H](N1CCOCC1)[C@H](NC(=O)[C@@H]1OC[C@H]1C)C(=O)N1CCC[C@H](N1)C(=O)OCC(C)(C)C2 (racemic) [Example A519],< 1,greater decrease in cell viability
CO[C@@H](C)c1ncc(N2CCN(C3CC3)CC2)cc1-c1c2c3cc(ccc3n1CCOC1CCOCC1)-c1csc(n1)[C@@H](N1CCOCC1)[C@H](NC(=O)[C@H]1OC[C@H]1C)C(=O)N1CCC[C@H](N1)C(=O)OCC(C)(C)C2 (racemic) [Example A520],< 1,greater decrease in cell viability
CCO[C@@H]1c2nc(cs2)-c2ccc3c(c2)c(c(-c2cc(N4CCN(C5CC5)CC4)cnc2[C@H](C)OC)n3CCOC2CCOCC2)CC(C)(C)COC(=O)[C@@H]2CCCN(N2)C(=O)[C@H]1NC(=O)C1(C#N)CCO1 (mixture of isomers) [Example A521],< 1,greater decrease in cell viability
CO[C@@H]1CCN([C@@H]2c3nc(cs3)-c3ccc4c(c3)c(c(-c3cc(N5CCN(C6CC6)CC5)cnc3[C@H](C)OC)n4CCOC3CCOCC3)CC(C)(C)COC(=O)[C@H]3NN(C(=O)[C@H]2NC(=O)[C@@H]2[C@@H](C)[C@H]2c2cocn2)C2CC3C2)C1 (racemic) [Example A522],< 1,greater decrease in cell viability
CO[C@@H](C)c1ncc(N2CCN(C3CC3)CC2)cc1-c1c2c3cc(ccc3n1CCOC1CCOCC1)-c1csc(n1)[C@@H](N1CC[C@H](F)C1)[C@H](NC(=O)C13CC(C1)[C@H](C)O3)C(=O)N1N[C@H](C(=O)OCC(C)(C)C2)C2CC1C2 (racemic) [Example A523],< 1,greater decrease in cell viability
CO[C@@H](C)c1ncc(N2CCN(C3CC3)CC2)cc1-c1c2c3cc(ccc3n1CCOC1CCOCC1)-c1csc(n1)[C@@H](N1CC[C@H](F)C1)[C@H](NC(=O)C13CC(C1)[C@@H](C)O3)C(=O)N1N[C@H](C(=O)OCC(C)(C)C2)C2CC1C2 (racemic) [Example A524],< 1,greater decrease in cell viability
